Reference: patent US9254268B2, “Compositions comprising lipophilic active compounds and method for their preparation” (SOLUBEST LTD., priority 2007, dated 2016)

Assay: Thermal properties by Differential Scanning Calorimetry (DSC)
Conditions: after preparation

For `COC(=O)C1=C(C)NC(C)=C(C(=O)OC)C1c1ccccc1[N+](=O)[O-]` [Raw nifedipine crystalline powder, Nifedipine], the “melting enthalpy (melting energy)” value was 113.4 J/g and the “melting temperature (endothermic peak)” value was “around 172.4 °C”.
